Results are given in words; binding and its absence hold for the method and conditions named. Binding seen in cells or lysates may run through a third protein. Some entries that bind do so weakly or less than the wild type.
What was measured:
[1] = molecular target: splicing factor 3B subunit 1 (SF3B1), endogenous in JLAT10.6 cells (human (endogenous in JLAT10.6)) (UniProt O75533); test: co-IP
Myc-cyclin T1 = Myc-cyclin T1 (UniProt O60563); test: co-IP
[2] = molecular target: GST-Tat 1-48w, truncated after amino acid 48 with wild-type activation domain (HIV-1) (UniProt P04608); test: pull-down; GST or GST-Tat mutants on glutathione Sepharose 4B beads incubated with untransfected 293T whole-cell lysate at 4°C overnight; blot probed for endogenous SF3B1 or GST; only the target purified
[3] = molecular target: GST-Tat 1-72R, one exon, wild-type (HIV-1) (UniProt P04608); test: as above
[4] = molecular target: GST-Tat 1-86R, two exons, wild-type (HIV-1) (UniProt P04608); test: as above

Protein sequences, listed by entry. Tags and fused reporters are not part of them. Lines headed by an entry give the natural chain unless they say otherwise; changes in a name come on top. Residues count along the entry.
UniProt O75533: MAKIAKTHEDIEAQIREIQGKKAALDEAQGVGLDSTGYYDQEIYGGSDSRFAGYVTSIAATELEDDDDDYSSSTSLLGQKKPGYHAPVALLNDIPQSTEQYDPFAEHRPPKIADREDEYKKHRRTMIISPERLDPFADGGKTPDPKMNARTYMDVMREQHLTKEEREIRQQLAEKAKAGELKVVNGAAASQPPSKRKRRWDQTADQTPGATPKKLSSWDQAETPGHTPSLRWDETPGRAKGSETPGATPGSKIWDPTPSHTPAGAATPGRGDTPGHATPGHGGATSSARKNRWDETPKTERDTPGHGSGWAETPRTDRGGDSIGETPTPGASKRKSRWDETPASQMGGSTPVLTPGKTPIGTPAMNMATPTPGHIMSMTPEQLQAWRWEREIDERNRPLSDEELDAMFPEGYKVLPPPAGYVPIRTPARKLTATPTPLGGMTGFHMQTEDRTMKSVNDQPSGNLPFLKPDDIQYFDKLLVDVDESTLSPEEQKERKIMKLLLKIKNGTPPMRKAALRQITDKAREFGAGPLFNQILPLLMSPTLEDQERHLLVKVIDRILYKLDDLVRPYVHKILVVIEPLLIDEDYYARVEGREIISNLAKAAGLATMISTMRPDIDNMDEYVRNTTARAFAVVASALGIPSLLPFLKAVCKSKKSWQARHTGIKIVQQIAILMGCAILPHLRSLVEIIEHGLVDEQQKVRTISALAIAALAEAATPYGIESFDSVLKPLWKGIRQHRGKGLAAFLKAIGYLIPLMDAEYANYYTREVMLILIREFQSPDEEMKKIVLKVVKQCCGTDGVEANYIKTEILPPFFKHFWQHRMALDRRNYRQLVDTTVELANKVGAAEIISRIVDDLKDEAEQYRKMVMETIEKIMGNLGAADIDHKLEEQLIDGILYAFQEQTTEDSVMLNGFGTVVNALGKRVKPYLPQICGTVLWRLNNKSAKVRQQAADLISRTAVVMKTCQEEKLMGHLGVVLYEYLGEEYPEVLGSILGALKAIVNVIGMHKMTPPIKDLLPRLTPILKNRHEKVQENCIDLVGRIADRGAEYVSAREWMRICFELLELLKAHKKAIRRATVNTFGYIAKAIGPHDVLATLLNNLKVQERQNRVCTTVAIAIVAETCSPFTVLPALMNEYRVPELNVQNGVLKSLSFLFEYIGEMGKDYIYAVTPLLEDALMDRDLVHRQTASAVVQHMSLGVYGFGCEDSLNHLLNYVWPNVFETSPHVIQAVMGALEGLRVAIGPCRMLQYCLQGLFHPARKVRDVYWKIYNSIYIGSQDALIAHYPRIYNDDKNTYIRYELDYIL
UniProt O60563: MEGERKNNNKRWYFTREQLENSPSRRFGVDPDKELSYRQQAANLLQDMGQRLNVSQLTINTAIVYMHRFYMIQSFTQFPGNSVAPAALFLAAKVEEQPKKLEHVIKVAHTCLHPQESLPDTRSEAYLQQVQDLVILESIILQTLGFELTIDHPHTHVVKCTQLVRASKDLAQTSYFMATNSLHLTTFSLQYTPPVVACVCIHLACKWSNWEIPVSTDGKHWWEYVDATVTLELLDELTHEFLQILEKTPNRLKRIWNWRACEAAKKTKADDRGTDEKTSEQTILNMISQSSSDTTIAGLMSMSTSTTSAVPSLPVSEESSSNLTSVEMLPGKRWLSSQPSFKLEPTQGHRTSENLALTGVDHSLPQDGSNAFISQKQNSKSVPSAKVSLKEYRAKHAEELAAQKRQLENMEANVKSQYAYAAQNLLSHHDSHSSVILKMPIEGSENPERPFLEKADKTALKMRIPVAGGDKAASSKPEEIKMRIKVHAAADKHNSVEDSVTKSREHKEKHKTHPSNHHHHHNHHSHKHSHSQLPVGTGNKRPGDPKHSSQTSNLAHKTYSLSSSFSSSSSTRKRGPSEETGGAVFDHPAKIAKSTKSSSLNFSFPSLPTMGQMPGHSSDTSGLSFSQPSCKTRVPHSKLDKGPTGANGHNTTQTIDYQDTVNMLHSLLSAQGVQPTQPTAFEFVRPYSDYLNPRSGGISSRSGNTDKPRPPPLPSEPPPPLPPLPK
UniProt P04608: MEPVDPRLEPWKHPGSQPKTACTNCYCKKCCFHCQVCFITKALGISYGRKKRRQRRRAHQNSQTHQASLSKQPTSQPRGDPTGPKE
GST-Tat 1-72R, one exon, wild-type: residues 1-72 of P04608
GST-Tat 1-48w, truncated after amino acid 48 with wild-type activation domain: residues 1-48 of P04608
UniProt P50750: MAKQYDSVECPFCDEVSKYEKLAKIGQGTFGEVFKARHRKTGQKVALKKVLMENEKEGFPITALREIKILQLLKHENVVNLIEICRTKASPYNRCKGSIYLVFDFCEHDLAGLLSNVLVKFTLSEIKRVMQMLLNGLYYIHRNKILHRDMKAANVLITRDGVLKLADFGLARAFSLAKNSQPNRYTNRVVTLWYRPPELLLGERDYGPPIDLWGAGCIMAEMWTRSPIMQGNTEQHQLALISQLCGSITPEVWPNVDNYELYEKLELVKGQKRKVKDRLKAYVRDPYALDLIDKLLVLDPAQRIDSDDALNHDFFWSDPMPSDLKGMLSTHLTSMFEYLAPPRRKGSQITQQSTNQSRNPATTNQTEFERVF

Substance | binding [1] | binding (Myc-cyclin T1) | binding [2] | binding [3] | binding [4]
cyclin-dependent kinase 9 (CDK9), endogenous in JLAT10.6 cells (from UniProt P50750 1-372) | binds |  |  |  | 
splicing factor 3B subunit 1 (SF3B1), endogenous in 293T cells (from UniProt O75533 1-1304) |  | binds | no binding | binds | binds
